Experimental data from paper PMC7012618.

The chains behind the UniProt entries cited, without tags or fusion partners.
UniProt P09874: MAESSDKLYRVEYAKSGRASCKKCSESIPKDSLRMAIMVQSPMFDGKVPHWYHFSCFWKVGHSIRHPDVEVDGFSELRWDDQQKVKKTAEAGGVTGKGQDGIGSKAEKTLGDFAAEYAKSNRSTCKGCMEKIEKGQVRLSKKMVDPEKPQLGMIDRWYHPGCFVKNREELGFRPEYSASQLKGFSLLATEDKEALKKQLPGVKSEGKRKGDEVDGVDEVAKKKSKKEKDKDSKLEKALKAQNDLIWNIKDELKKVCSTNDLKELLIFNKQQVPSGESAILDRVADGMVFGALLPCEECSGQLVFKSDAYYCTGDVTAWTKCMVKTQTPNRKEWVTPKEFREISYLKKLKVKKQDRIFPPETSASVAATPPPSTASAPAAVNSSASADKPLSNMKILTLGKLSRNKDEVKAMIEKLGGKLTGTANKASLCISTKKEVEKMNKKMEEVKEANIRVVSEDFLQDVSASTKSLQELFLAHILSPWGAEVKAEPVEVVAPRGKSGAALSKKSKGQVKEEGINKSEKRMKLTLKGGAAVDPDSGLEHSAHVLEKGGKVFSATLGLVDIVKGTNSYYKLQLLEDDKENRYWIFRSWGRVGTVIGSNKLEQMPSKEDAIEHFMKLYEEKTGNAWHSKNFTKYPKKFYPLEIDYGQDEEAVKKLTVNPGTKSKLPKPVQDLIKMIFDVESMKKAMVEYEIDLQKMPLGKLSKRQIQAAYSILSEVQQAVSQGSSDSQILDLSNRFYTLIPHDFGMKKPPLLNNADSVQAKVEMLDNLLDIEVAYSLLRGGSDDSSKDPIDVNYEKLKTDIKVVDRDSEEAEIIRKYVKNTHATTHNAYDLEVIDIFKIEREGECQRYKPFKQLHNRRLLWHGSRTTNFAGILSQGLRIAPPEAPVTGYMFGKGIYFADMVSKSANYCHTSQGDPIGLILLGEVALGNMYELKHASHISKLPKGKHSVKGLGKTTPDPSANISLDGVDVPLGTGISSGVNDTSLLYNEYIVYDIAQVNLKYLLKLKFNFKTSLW

Target: MBP-Kif2C (human Kif2C expressed with MBP-tag) (human) (UniProt Q99661)
Assay: affinity purification with mass spectrometry; MBP-Kif2C on amylose beads or blank beads incubated in lysates of doxorubicin-treated HeLa cells; pull-down samples analysed by mass spectrometry; only the target purified

- binding: binds
Substance: PARP1 (from UniProt P09874 1-1014)

Results are given in words; binding and its absence hold for the method and conditions named. Binding seen in cells or lysates may run through a third protein. A yes stands for co-enrichment or nearness to the bait. Other partners may have been found. Where a sequence is shown, tags or fusion partners need not be part of it.
